# Results from the supplement of paper PMC5407854, “Inhibitor of ppGalNAc-T3-mediated O-glycosylation blocks cancer cell invasiveness and lowers FGF23 levels” (eLife, 2017).
# Whole data set: some 1,700 compounds, median “T3 sensor activation Q score (MG/GFP ratio z-score vs DMSO controls)” near 0.25, cut for the highest 2% near 1.9. The list shows a part of the results.
# System: ppGalNAc-T3 sensor
# Assay: T3 sensor activation Q score (MG/GFP ratio z-score vs DMSO controls) (SD units); higher = more sensor activation (inhibition of ppGalNAc-T3 glycosylation)
# Conditions: HEK293 sensor cells; 10 µM; 6 h
# Procedure: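 Cells were treated with compound at 10 uM for 6 h, then MG/GFP ratio was read by flow cytometry (10,000 cells per well, duplicate wells). Q = (R - R_neg)/SD_neg relative to DMSO vehicle controls; the signal rises when the glycosyltransferase is inhibited.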
row,SMILES,T3 sensor activation Q score
1,CCCOc1ccc(-c2nc(-c3ccc(N)cc3)cs2)cc1,-0.3
2,Cc1ccc(Nc2nccc(N(C)c3ccc4c(C)n(C)nc4c3)n2)cc1S(N)(=O)=O,0.2
3,CC(C)(C)C(=O)Nc1ccc(NC(=O)C(C)(C)C)cc1,-0.35
4,COc1ccc2c(C)cc(C)nc2n1,-1.35
5,Cc1c(O)ccc2c(O)c(NC(=O)c3ccc4c(c3)CCC(C)(C)O4)c(=O)oc12,0.9
6,COC(=O)c1cc(C)c(C)cc1NC1OC(CO)C(O)C1O (stereo not given),0.5
7,COC(=O)C1=C(C)NC(C)=C(C(=O)OC)C(N2C(=O)CCC2=O)C1 (stereo not given),1
8,O=C(Nc1ccccc1)C1=C(Nc2ccccc2)CSC1,-1.15
9,Nc1nc(N)c(N=Nc2ccc(S(N)(=O)=O)cc2)c(=O)[nH]1,-0.25
10,O=c1cc[nH]c2c(Cl)cccc12,-1.25
11,O=C(Nc1nnc(C(F)(F)F)s1)c1c(F)cccc1F,0.45
12,CN1C=C/C(=C\[N+](=O)[O-])N(C)C1=O,-0.45
13,CN1C(=O)c2ccccc2Cc2c(NCc3ccccc3)ncnc21,0.9
14,NC(=O)Nc1ccc(Nc2ccccc2)cc1,0.7
15,Nc1ccc(Nc2ccccc2)c(S(=O)(=O)O)c1,1
16,Cc1cc2nc(-c3ccccn3)c(-c3ccccn3)nc2cc1C,1.35
17,CCSc1nc(=S)cc(C)[nH]1,0
18,COc1cc(O)c(C(=O)/C=C/c2ccccc2)c(OC)c1,0.1

row,SMILES,T3 sensor activation Q score
1,O=C(O)c1cc2cc(OCc3ccccc3)ccc2[nH]1,0.1
2,O=c1[nH]cnc2c1ncn2Cc1ccc([N+](=O)[O-])cc1,0.15
3,CC1CCCC(CC(=O)O)(CC(=O)O)C1 (stereo not given),0.75
4,CC(C)Oc1ccc(C(=O)O)cc1,-1.8
5,CS/C(=C\c1ccc(C(=O)c2ccc(C)cc2)n1C)[S+](C)[O-] (stereo not given),-0.45
6,c1ccc2c(c1)Nc1cc3ccccc3cc1S2,-0.45
7,O=[N+]([O-])c1ccc2c3ccccc3[s+]([O-])c2c1 (stereo not given),0.5
8,Cc1ccc(NC(=O)N2CCCCC2)cc1[N+](=O)[O-],1.55
9,CSc1nc(Cl)c(Br)c(Nc2c[nH]c(=O)[nH]c2=O)n1,1
10,CSc1n[nH]c(-c2cccs2)n1,-1.35
11,CCOC(=O)Nc1c(Cl)n(C)c(=O)n(C)c1=O,1.75
12,C=CCNC(=S)NCC,1.9
13,CCOC(=O)C1(C#N)C(=O)CSC1=Nc1ccccc1Cl (stereo not given),-1.05
14,O=C(c1ccccc1)c1ccc(Sc2ccc([N+](=O)[O-])cc2)cc1,-0.5
15,CN1CCN(C(=O)Nc2ccc([N+](=O)[O-])cc2)CC1,0.8
16,Cn1ncc2c(Nc3ccc(Br)cc3)nc(Nc3ccc(Br)cc3)nc21,-1.2
17,Nc1ccccc1-n1nc2ccc3ccccc3c2n1,-0.85

# Fetched one by one from the list above, 3 records:
row,SMILES,T3 sensor activation Q score
5,CS/C(=C\c1ccc(C(=O)c2ccc(C)cc2)n1C)[S+](C)[O-] (stereo not given),-0.45
17,Nc1ccccc1-n1nc2ccc3ccccc3c2n1,-0.85
16,Cn1ncc2c(Nc3ccc(Br)cc3)nc(Nc3ccc(Br)cc3)nc21,-1.2
